# Source: the supplement of paper PMC12067093, “Discovery and optimisation of a covalent ligand for TRIM25 and its application to targeted protein ubiquitination” (Chemical Science, 2025)
# Amino acid sequences for entries named in this document (tags omitted). A change or cut given only in a name is not applied to a line headed by its entry.
# UniProt P52630: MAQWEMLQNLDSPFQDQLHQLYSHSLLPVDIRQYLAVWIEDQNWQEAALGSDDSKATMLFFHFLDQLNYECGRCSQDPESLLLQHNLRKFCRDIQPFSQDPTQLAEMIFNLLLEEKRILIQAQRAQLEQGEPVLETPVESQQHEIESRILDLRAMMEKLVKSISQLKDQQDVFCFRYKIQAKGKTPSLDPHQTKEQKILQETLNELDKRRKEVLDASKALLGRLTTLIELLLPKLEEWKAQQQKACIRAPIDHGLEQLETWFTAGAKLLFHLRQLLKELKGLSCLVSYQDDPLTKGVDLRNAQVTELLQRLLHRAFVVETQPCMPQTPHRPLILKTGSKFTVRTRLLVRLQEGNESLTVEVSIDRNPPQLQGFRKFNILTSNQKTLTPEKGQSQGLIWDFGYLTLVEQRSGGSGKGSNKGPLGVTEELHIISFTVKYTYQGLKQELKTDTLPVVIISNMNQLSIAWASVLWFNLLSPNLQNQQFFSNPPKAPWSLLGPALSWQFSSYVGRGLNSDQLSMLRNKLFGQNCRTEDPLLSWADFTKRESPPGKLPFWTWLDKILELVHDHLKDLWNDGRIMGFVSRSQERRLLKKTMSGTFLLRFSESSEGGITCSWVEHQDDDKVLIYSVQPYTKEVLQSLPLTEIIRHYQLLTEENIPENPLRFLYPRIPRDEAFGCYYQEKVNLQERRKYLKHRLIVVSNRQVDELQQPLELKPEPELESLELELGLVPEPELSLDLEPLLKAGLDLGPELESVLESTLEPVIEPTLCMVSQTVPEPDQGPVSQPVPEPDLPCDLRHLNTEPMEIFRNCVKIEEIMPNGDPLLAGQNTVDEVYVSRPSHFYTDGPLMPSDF
# UniProt Q9UNE7: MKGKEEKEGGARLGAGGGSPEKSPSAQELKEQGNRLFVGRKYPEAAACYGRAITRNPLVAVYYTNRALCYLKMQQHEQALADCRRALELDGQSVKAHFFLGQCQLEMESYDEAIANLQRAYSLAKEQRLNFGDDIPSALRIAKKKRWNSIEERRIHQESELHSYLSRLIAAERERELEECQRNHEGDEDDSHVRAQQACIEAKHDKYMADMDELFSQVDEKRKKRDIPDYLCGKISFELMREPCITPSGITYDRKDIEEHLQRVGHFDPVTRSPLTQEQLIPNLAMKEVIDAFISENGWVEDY
# UniProt Q9NQZ5: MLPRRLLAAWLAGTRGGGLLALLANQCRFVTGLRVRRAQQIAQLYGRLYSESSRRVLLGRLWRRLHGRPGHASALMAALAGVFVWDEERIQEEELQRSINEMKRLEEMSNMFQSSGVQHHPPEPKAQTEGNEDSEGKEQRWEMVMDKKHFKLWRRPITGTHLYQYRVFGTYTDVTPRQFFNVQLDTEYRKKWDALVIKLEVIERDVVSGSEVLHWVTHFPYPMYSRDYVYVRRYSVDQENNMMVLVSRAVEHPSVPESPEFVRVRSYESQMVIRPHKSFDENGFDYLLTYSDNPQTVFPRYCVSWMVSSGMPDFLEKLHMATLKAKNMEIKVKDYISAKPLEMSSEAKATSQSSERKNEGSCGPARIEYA
# UniProt O95793: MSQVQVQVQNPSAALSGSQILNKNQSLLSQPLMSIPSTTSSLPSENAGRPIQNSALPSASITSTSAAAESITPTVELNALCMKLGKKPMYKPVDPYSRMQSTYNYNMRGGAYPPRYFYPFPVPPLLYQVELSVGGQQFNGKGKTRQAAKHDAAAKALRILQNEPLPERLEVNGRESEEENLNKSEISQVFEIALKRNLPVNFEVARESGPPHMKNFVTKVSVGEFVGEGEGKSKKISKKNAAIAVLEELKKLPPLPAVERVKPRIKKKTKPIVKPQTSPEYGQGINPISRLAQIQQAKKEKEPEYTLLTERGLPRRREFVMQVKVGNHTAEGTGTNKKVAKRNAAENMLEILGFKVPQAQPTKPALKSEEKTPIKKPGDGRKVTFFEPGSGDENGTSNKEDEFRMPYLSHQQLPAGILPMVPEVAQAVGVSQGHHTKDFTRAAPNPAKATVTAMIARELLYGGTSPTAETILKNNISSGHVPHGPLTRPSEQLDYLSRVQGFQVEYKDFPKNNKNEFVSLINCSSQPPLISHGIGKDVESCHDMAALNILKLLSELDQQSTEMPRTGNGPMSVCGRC
# UniProt O43463: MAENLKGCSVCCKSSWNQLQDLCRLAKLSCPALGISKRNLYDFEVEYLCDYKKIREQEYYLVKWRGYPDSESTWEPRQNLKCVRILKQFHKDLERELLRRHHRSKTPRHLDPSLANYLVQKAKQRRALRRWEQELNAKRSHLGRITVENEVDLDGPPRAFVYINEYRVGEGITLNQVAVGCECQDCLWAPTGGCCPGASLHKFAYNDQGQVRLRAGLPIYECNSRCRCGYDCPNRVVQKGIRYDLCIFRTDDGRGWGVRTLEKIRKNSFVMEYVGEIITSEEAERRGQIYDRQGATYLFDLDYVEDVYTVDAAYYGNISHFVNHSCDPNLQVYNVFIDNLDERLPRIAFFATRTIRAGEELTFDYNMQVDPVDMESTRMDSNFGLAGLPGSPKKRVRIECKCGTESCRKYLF
# UniProt Q8IYB8: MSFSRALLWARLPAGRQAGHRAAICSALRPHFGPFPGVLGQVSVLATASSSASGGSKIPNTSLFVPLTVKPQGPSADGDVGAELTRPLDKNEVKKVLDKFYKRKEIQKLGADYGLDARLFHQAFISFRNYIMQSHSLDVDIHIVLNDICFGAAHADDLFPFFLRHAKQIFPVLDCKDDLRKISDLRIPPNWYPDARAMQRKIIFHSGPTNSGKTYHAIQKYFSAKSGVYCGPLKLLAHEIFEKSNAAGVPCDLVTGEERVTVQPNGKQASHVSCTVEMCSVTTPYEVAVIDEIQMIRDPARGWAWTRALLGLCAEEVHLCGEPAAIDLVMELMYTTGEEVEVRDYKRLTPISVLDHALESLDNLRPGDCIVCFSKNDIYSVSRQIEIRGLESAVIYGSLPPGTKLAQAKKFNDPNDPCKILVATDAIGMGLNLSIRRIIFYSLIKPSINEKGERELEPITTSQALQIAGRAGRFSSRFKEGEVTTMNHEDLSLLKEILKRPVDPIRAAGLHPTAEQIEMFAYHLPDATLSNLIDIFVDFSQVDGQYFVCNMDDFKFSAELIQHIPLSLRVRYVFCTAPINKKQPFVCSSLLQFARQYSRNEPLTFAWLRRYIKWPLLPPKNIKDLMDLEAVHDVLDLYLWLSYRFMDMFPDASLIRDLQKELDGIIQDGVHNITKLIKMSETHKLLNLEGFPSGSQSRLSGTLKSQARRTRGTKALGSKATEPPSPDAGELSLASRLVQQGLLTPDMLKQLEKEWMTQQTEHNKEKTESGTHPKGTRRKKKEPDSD
# UniProt Q9H4F1: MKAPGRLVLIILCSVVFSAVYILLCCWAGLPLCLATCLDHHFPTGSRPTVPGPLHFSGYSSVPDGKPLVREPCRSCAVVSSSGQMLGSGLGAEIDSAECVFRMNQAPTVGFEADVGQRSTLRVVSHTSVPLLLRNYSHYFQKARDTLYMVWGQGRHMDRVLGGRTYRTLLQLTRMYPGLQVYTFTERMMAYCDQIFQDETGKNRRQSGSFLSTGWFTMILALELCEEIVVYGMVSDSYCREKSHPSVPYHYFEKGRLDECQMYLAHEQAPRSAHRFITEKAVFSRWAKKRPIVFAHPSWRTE
# UniProt Q15833: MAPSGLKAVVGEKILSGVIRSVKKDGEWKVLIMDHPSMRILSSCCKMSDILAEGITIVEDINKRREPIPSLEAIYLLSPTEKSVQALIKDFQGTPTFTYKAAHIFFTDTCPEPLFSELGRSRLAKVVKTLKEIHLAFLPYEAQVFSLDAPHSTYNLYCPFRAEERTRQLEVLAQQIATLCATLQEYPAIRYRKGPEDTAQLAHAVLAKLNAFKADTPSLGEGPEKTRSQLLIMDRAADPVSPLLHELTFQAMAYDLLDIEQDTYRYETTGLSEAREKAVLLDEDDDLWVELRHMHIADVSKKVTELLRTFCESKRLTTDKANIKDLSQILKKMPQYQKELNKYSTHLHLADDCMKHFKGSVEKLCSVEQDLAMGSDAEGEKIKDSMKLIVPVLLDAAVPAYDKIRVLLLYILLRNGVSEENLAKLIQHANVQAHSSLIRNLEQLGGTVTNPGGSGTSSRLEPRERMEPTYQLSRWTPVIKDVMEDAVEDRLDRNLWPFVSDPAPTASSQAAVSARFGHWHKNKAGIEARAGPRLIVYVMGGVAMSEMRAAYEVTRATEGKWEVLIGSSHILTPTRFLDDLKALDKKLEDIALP
# UniProt Q9UH65: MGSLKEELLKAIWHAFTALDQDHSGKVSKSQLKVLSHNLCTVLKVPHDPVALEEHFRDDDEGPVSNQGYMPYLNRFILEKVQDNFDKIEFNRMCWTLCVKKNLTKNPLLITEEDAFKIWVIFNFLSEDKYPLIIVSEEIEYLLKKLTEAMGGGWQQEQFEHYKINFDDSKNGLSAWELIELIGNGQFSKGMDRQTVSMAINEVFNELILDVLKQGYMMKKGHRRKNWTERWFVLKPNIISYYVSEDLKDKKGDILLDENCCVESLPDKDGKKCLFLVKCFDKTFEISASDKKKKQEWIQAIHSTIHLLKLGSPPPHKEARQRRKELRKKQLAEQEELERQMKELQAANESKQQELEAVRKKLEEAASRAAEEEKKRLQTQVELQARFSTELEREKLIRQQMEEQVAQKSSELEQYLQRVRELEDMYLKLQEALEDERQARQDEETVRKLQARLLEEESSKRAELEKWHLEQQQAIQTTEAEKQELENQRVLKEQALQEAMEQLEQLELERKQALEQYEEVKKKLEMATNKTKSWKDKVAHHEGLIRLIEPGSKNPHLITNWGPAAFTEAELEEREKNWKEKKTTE
# UniProt O43815: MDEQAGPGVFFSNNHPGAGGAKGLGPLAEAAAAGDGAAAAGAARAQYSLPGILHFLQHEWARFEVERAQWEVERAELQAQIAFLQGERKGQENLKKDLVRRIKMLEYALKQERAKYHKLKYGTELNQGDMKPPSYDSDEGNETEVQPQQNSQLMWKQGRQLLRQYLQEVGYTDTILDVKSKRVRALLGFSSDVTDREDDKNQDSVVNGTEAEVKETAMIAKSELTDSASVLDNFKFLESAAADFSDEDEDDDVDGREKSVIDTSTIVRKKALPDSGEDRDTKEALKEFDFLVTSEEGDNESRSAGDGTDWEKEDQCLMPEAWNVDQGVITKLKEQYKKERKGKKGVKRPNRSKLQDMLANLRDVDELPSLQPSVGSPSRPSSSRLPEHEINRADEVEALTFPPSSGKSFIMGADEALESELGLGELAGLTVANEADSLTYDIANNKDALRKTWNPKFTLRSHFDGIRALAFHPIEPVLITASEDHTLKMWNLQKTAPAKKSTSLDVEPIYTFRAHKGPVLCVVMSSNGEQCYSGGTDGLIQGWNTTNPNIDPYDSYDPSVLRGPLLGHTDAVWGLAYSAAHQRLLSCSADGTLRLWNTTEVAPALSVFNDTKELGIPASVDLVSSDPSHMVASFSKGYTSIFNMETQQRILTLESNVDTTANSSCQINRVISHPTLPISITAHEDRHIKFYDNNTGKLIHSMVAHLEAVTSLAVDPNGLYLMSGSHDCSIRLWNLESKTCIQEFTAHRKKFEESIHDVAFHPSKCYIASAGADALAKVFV
# UniProt P84103: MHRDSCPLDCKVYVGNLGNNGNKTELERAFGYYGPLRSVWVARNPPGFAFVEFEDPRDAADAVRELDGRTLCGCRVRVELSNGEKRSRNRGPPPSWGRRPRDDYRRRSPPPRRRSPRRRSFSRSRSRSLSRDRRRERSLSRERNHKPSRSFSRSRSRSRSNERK
# UniProt Q9Y5M8: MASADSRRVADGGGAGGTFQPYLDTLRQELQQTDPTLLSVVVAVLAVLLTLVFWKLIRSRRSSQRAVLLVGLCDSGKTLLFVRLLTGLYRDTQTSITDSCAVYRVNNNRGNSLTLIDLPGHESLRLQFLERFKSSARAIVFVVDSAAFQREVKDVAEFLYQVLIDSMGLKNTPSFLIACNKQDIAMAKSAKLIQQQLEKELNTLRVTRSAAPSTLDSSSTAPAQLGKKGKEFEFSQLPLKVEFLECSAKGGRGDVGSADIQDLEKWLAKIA
# This is one part of the list.
# Compound: CC1Cc2ccccc2N1C(=O)C1CCCN(C1)C(=O)CCl (mixture of isomers) [TRIM25 ligand 11 (diastereomer mixture)]
# Experiment: probe-labelled cysteine peptide fold change vs DMSO (competition) (log2 fold change); higher = less target engagement (more negative = stronger competition)
# Conditions: 10 µM; THP-1; incubation time: 4 h
# 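Note: competitive chemoproteomic profiling in live THP-1 cells with an iodoacetamide desthiobiotin (IA-DTB) probe, comparing probe-labelled peptide intensities in compound-treated cells against DMSO-treated controls.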
row,Target,probe-labelled cysteine peptide fold change
1,STAT2_P52630_71_ATMLFFHFLDQLNYECGR (UniProt P52630),0.0863
2,STUB1_Q9UNE7_244_EPCITPSGITYDRK (UniProt Q9UNE7),-0.101
3,STARD7_Q9NQZ5_362_KNEGSCGPAR (UniProt Q9NQZ5),-0.12
4,STAU1_O95793_523_NEFVSLINCSSQPPLISHGIGK (UniProt O95793),-0.109
5,SUV39H1_O43463_30_LSCPALGISK (UniProt O43463),-0.0164
6,SUPT6H_Q7KZ85_1021_TQLVTMCHMGPK (UniProt Q7KZ85),-0.0542
7,SUPV3L1_Q8IYB8_587_KQPFVCSSLLQFAR (UniProt Q8IYB8),-0.0532
8,SSSCA1_O60232_125_EHQLASASELPLGSRPAPQPPVPRPEHCEGAAAGLK (UniProt O60232),-0.117
9,ST6GALNAC4_Q9H4F1_260_GRLDECQMYLAHEQAPR (UniProt Q9H4F1),0.222
10,STXBP2_Q15833_365_LCSVEQDLAMGSDAEGEK (UniProt Q15833),0.0583
11,SWAP70_Q9UH65_261_KGDILLDENCCVESLPDK (UniProt Q9UH65),0.0552
12,STRN_O43815_765_CYIASAGADALAK (UniProt O43815),0.0216
13,SRSF3_P84103_6_DSCPLDCK (UniProt P84103),-0.208
14,SRPRB_Q9Y5M8_246_VEFLECSAK (UniProt Q9Y5M8),0.0392
15,STK39_Q9UEW8_525_LASGCDGSEIPDEVK (UniProt Q9UEW8),0.141
16,SSSCA1_O60232_73_IYCVACQELDSDVDK (UniProt O60232),0.104

# Excerpt, entries 1 to 2
row,Target,probe-labelled cysteine peptide fold change
1,STAT2_P52630_71_ATMLFFHFLDQLNYECGR (UniProt P52630),0.0863
2,STUB1_Q9UNE7_244_EPCITPSGITYDRK (UniProt Q9UNE7),-0.101
